The results in this text go back to paper PMC8792764.

Results are given in words; binding and its absence hold for the method and conditions named. Binding calls can cover weak binding; strength is not graded here. Sequences can lack the tags named with a protein. For some assays here: In cells and extracts the contact can be indirect.

For assay [1], the target named is OsRF1 fused to the GAL4 DNA-binding domain (pGBKT7-OsRF1) (rice (Oryza sativa)). Kind of assay: two-hybrid; bait pGBKT7-OsRF1 (GAL4 BD), prey pGADT7-OsPP2Cs (GAL4 AD), yeast AH109; growth selection on SD-LTH, 30°C, 3 days.
Assay [2] shares this target. Kind of assay: two-hybrid; bait pGBKT7-OsRF1 (GAL4 BD), prey pGADT7-OsPP2Cs (GAL4 AD), yeast AH109; colour change on SD-LT with X-α-Gal, 30°C, 3 days.
Assay [3] addresses OsRF1 fused to the C-terminal part of YFP (pVYCE-OsRF1) (rice (Oryza sativa)). Nature of the assay: split reporter; BiFC in rice protoplasts co-transformed with pVYCE-OsRF1 and pVYNE-OsPP2C; 16 h with 50 μM MG132 (also looked at without MG132); confocal microscopy.
The target of assay [4] is OsRF1-GFP fusion protein (rice (Oryza sativa)). Nature of the assay: co-IP; rice protoplasts co-transfected with OsRF1-GFP and OsPP2C09-HA, 20 h with 10 μM MG132; lysate on GFP-Trap beads, 4°C, 2 h; 150 mM NaCl, 50 mM Tris-HCl pH 7.5; blots with anti-HA and anti-GFP.

B1: OsPP2C30 fused to the GAL4 activation domain (pGADT7-OsPP2C30) (enzyme, UniProt Q84JI0 1-404)
chain: MAEICCEVVAGSSSEGKGPECDTGSRAARRRRMEIRRLRVVAERGAEEETSGKRRRLDGGGGEASTDEEDREVERARYGFTSVCGRRRDMEDSVSACPGFLPGHHFFGVFDGHGCSHVATSCGQRMHEIVVDEAGAAAGSAGLDEEARWRGVMERSFARMDAEAVASSRGSVAPAPTCRCEMQLPKCDHVGSTAVVAVLGPRHVVVANCGDSRAVLCRGGAAIPLSCDHKPDRPDELERIHAAGGRVIFWDGARVFGMLAMSRAIGDSYLKPYVICDPEVRVMERKDGEDEFLILASDGLWDVVSNEVACNVVRACLRSSGRRERNRSSPTSNLSPRQSSSSGDEAPNDGAPSAAAGSESDEESAAEEDKACAEAAVLLTKLALARQTSDNVSVVVVNLRRRKL
For B1, the binding entry in assay [1] was “binds”; in assay [2] it was “binds weakly”.

B2: OsPP2C30 fused to the N-terminal part of YFP (pVYNE-OsPP2C30) (enzyme, UniProt Q84JI0 1-404)
chain: B1 chain
As to B2, in assay [3], the binding entry is reported as “no binding”.

B3: OsPP2C53 fused to the GAL4 activation domain (pGADT7-OsPP2C53) (enzyme, UniProt Q6L4R7 1-445)
chain: MEDLALPAAPPAPTLSFTLLAAAAAVAEAMEEALGAALPPLTAPVPAPGDDSACGSPCSVASDCSSVASADFEGFAELGTSLLAGPAVLFDDLTAASVAVAEAAEPRAVGATARSVFAMDCVPLWGLESICGRRPEMEDDYAVVPRFFDLPLWMVAGDAAVDGLDRASFRLPAHFFAVYDGHGGVQVANYCRKRIHAVLTEELRRAEDDACGSDLSGLESKKLWEKAFVDCFSRVDAEVGGNAASGAPPVAPDTVGSTAVVAVVCSSHVIVANCGDSRAVLCRGKQPLPLSLDHKPNREDEYARIEALGGKVIQWNGYRVLGVLAMSRSIGDKYLKPYIIPVPEVTVVARAKDDDCLILASDGLWDVMSNEEVCDAARKRILLWHKKNAATASTSSAQISGDSSDPAAQAAADYLSKLALQKGSKDNITVVVIDLKAHRKFKSKA
B3: the figures for the binding result in assay [1] and in assay [2] were “binds” and “binds weakly”, respectively.

B4: OsPP2C53 fused to the N-terminal part of YFP (pVYNE-OsPP2C53) (enzyme, UniProt Q6L4R7 1-445)
chain: B3 chain
B4: the binding result in assay [3] was “no binding”.

B5: OsPP2C09 fused to the GAL4 activation domain (pGADT7-OsPP2C09) (enzyme, UniProt Q5N9N2 1-414)
chain: MAEICCEEAMSPPATATAAVAAAVSASAAAAVSSAIDRRRRRMEMRRIRIASDLELQAGEDGRPGKRQRLARTASGAPRPDEDSASERPSCGRTEEFPRYGVTAVCGRRREMEDAVSIRPDFLPASGKFHFYGVFDGHGCSHVATTCQDRMHEIVAEEHNKGASGEVAPWRDVMEKSFARMDGEVGNRASTRSDDEPACPCEQQTPSRRDHAGSTAVVAVVSPTQVVVANAGDSRAVISRAGVPVALSVDHKPDRPDELERIEAAGGRVIYWDGARVLGVLAMSRAIGDGYLKPYVTSEPEVTVTERTDDDECLILASDGLWDVVTNEMACEVVRACFHNNGPPAPAARPSGVPSSAEAAETENGGAASVKGISKAESSDKACSDAAMLLTKLALARRSADNVSVVVVDLRRGL
As to B5, the binding entry in assay [1] and in assay [2] was “binds” in each case.

B6: OsPP2C09 fused to the N-terminal part of YFP (pVYNE-OsPP2C09) (enzyme, UniProt Q5N9N2 1-414)
chain: B5 chain
Regarding B6, in assay [3], the binding entry is on record as “binds”.

B7: OsPP2C09-HA fusion protein (enzyme, UniProt Q5N9N2 1-414)
chain: B5 chain
Consider B7, for which the binding entry in assay [4] is recorded as “binds”.

B8: OsPP2C08 fused to the GAL4 activation domain (pGADT7-OsPP2C08) (enzyme, UniProt Q5SN75 1-403)
chain: MSSDTSRRDHAAMAVREVLAGDRKVGTVSRSARRRRLELRRLGRTASAVAEDDAAKRVRPASDSSSDSSESAKVAPEPTAEVARWPACVSHGAVSVIGRRREMEDAIFVAAPFLAASKEAAVEGSGVAEEEGKEEDEGFFAVYDGHGGSRVAEACRERMHVVLAEEVRVRRLLQGGGGGADVEDEDRARWKEAMAACFTRVDGEVGGAEEADTGEQTVGSTAVVAVVGPRRIVVANCGDSRAVLSRGGVAVPLSSDHKPDRPDEMERVEAAGGRVINWNGYRILGVLATSRSIGDYYLKPYVIAEPEVTVMDRTDKDEFLILASDGLWDVVSNDVACKIARNCLSGRAASKYPESVSGSTAADAAALLVELAISRGSKDNISVVVVELRRLRSRTTASKENGR
With B8, in assay [2], the binding entry was “binds weakly”.
